Measured values: the supplement of paper PMC7666118
This is one part of the list.

Chains of the proteins cited; added tags and fusions are not shown. Lines headed by an entry give the natural chain unless they say otherwise; changes in a name come on top.
UniProt Q8N8S7: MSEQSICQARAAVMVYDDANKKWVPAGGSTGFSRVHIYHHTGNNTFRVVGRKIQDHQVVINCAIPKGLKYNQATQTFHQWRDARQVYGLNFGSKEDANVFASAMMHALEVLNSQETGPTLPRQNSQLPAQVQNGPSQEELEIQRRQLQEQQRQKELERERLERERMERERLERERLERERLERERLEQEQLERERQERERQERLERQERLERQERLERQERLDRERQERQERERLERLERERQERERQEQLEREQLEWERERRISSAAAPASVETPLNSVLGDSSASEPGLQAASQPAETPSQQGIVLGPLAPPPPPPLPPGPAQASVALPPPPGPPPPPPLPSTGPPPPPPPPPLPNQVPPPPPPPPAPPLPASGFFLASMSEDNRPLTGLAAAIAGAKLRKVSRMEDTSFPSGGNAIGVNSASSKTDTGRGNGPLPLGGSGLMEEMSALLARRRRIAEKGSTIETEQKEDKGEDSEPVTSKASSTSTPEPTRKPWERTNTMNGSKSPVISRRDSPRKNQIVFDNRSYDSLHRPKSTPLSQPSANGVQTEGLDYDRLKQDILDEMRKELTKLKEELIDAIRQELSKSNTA
UniProt Q9NTX5: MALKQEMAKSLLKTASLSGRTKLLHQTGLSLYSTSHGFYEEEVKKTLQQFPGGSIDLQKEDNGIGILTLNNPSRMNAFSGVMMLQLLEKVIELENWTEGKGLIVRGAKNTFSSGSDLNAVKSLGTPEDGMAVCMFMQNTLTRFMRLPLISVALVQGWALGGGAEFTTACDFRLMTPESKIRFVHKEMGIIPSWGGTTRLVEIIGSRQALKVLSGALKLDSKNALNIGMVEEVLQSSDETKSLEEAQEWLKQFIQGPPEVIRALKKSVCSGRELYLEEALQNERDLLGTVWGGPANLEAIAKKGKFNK
UniProt Q9BVC3, whole entry: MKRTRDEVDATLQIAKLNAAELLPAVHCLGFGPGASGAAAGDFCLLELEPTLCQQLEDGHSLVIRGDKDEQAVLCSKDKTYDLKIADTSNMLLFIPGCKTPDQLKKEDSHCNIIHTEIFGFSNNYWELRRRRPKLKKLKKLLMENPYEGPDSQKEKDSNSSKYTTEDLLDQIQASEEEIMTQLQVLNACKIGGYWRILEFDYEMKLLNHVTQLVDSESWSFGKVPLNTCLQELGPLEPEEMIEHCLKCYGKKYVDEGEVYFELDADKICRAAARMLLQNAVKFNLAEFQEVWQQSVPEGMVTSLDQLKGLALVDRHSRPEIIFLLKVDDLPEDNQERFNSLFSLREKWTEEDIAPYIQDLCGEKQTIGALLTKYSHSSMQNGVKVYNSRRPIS
UniProt Q6XZF7: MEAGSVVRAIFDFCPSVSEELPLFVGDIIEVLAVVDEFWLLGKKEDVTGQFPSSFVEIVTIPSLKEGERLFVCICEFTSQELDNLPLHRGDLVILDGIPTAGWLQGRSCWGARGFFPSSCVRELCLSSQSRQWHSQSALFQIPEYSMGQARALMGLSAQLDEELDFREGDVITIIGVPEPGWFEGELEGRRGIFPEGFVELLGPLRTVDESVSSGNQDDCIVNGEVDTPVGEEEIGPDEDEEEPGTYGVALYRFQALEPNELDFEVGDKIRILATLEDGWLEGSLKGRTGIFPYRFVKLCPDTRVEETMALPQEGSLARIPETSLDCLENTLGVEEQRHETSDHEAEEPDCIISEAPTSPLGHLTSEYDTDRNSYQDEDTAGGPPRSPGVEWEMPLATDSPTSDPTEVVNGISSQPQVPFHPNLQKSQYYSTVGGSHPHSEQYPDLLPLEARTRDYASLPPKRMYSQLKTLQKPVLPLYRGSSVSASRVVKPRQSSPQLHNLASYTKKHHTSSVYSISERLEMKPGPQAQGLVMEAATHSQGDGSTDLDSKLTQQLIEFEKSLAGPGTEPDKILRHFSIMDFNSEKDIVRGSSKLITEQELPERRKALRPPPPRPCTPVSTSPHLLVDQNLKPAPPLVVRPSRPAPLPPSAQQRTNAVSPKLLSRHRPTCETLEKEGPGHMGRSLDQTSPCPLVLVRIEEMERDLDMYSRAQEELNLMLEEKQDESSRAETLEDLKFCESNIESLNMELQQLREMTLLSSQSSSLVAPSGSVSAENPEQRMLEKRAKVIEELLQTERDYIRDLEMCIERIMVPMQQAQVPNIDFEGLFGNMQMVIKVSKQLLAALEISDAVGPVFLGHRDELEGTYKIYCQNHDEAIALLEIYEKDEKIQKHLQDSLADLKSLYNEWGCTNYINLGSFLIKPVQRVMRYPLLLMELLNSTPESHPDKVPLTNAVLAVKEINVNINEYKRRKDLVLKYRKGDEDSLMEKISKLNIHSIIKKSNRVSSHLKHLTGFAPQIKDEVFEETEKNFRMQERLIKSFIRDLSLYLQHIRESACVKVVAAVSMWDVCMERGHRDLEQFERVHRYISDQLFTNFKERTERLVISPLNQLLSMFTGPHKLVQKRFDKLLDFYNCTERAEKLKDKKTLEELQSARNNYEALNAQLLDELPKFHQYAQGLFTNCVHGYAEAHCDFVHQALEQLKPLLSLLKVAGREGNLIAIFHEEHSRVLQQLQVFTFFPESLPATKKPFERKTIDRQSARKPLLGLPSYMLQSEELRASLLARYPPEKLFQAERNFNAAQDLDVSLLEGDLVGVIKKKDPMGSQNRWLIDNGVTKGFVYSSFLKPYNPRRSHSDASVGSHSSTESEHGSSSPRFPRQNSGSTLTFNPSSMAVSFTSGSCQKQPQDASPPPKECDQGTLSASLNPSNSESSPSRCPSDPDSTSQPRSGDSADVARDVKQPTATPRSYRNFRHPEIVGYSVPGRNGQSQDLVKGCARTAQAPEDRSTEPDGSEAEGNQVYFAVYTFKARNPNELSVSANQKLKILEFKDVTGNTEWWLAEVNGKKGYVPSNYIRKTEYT
UniProt Q9UNI6, whole entry: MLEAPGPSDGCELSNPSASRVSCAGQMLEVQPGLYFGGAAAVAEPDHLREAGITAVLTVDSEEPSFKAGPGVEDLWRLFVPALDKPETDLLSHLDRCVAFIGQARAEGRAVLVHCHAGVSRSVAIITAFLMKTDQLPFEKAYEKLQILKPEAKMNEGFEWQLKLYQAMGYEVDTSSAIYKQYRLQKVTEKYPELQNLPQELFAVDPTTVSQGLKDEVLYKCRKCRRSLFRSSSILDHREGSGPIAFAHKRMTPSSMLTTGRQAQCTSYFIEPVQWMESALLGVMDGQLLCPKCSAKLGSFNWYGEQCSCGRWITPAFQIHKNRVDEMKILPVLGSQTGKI
UniProt Q9UBS4: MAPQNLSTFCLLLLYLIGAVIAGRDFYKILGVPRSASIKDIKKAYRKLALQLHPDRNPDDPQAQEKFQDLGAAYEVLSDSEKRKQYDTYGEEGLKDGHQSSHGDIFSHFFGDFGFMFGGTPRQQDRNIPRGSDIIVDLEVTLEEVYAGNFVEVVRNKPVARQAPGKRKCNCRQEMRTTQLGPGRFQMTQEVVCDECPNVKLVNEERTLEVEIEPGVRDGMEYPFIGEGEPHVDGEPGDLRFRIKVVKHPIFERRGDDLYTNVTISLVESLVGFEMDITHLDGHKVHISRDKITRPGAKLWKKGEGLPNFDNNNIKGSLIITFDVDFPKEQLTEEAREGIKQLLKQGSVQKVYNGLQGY
UniProt O94905: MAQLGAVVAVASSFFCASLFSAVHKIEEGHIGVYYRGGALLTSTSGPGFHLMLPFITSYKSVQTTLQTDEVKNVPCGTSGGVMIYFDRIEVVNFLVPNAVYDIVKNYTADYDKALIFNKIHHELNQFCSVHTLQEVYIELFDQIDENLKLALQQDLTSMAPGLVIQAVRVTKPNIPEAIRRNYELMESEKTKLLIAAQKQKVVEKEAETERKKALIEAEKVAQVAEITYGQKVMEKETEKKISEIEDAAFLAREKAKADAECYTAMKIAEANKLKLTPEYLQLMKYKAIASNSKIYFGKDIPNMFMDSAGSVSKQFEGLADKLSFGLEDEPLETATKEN
UniProt O75354: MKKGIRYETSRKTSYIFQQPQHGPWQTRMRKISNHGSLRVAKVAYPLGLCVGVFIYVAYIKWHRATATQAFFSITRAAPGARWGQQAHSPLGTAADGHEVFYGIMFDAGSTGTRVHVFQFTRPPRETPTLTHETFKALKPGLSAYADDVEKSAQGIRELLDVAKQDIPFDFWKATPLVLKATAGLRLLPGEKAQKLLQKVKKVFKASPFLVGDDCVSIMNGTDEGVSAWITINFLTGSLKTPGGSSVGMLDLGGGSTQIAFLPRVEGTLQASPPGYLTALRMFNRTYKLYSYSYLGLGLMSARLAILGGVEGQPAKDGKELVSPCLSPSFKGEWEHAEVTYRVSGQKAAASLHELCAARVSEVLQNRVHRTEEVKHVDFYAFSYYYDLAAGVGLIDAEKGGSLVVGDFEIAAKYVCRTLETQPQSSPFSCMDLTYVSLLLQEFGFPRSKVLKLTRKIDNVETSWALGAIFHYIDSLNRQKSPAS
UniProt P50548: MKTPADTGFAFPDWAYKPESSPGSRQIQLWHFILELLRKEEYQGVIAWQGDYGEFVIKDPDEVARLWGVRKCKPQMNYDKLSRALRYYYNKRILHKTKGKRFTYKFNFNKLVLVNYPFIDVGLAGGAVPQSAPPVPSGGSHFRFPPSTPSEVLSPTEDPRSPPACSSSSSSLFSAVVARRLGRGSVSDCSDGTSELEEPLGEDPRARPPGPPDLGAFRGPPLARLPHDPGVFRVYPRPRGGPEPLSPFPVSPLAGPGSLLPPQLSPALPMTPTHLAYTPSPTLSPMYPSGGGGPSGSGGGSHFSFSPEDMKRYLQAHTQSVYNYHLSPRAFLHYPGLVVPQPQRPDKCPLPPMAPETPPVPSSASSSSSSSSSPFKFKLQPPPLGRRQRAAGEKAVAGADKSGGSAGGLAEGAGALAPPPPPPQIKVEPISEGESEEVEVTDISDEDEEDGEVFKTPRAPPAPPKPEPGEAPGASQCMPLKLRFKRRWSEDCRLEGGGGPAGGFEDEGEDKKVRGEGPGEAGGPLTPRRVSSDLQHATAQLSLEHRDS
UniProt Q96JJ3: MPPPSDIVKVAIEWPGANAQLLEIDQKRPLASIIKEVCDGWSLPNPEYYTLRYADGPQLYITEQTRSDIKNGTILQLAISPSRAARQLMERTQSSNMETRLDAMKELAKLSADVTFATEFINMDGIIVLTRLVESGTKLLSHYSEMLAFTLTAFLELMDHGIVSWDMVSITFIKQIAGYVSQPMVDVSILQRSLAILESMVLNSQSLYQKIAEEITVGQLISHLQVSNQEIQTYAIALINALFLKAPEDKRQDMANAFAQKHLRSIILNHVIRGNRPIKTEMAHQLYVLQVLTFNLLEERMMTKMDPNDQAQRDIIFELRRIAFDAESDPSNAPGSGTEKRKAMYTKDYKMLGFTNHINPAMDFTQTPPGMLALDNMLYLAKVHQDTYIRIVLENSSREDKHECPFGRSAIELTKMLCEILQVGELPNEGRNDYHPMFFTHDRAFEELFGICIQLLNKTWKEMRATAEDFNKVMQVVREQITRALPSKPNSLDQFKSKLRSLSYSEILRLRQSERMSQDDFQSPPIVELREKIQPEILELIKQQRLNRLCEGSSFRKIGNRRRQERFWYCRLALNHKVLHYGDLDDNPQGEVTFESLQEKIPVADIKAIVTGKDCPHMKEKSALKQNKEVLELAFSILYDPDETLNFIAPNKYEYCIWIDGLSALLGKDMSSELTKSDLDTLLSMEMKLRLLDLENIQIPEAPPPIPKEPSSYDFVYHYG
UniProt Q9NXW2: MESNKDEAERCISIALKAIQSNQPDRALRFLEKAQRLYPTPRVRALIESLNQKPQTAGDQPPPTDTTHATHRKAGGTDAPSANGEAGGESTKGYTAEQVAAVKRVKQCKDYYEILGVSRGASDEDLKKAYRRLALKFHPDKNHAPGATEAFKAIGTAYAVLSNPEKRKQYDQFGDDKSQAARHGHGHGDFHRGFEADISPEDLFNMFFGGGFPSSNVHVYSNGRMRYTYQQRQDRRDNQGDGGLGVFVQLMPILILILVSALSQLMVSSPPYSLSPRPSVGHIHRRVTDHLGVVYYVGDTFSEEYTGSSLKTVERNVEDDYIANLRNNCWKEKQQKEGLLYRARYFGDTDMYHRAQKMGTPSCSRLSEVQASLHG
UniProt Q9BQC3: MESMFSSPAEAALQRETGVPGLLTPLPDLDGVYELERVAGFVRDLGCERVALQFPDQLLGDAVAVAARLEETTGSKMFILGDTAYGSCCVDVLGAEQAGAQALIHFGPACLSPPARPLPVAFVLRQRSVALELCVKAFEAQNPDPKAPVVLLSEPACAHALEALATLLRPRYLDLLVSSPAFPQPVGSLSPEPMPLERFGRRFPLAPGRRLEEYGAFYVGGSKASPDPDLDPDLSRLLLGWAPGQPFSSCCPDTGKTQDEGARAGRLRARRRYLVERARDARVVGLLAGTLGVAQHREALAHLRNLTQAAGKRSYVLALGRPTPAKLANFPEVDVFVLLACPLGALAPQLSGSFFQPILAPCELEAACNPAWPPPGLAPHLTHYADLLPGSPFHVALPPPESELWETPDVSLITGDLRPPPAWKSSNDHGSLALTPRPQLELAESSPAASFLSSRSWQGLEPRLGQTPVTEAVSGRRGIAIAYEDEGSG

Compound: COc1ccc(Cn2ccc3ccc(C(=O)NO)cc32)cc1
Experiment: dose-dependent thermal stabilisation call (2D-TPP, DLPTP, 10% FDR) (binary (1 = stabilised)); higher = stabilised by the compound
Settings: system: HL-60 intact cells; concentration range 0.04-10 µM

Row | Target | dose-dependent thermal stabilisation call
1 | ENAH (UniProt Q8N8S7) | inactive: 0
2 | ECHDC1 (UniProt Q9NTX5) | inactive: 0
3 | ERCC5 (UniProt P28715) | inactive: 0
4 | EML2 (UniProt O95834) | inactive: 0
5 | ECD (UniProt O95905) | inactive: 0
6 | EBAG9 (UniProt O00559) | inactive: 0
7 | EIF4ENIF1 (UniProt Q9NRA8) | inactive: 0
8 | ERBB2IP (UniProt Q96RT1) | inactive: 0
9 | DSCC1 (UniProt Q9BVC3) | inactive: 0
10 | DYNLRB1 (UniProt Q9NP97) | inactive: 0
11 | EIF4A3 (UniProt P38919) | inactive: 0
12 | EFTUD2 (UniProt Q15029) | inactive: 0
13 | DNAJC10 (UniProt Q8IXB1) | inactive: 0
14 | DNMBP (UniProt Q6XZF7) | inactive: 0
15 | ELMOD2 (UniProt Q8IZ81) | inactive: 0
16 | DLD (UniProt P09622) | inactive: 0
17 | DUSP12 (UniProt Q9UNI6) | inactive: 0
18 | DNAJB11 (UniProt Q9UBS4) | inactive: 0
19 | ERLIN2 (UniProt O94905) | inactive: 0
20 | ERC1 (UniProt Q8IUD2) | inactive: 0
21 | DOM3Z (UniProt O77932) | inactive: 0
22 | ENTPD6 (UniProt O75354) | inactive: 0
23 | ECSIT (UniProt Q9BQ95) | inactive: 0
24 | ERF (UniProt P50548) | inactive: 0
25 | ERGIC3 (UniProt Q9Y282) | inactive: 0
26 | DIP2B (UniProt Q9P265) | inactive: 0
27 | ELMO2 (UniProt Q96JJ3) | inactive: 0
28 | DNAJB12 (UniProt Q9NXW2) | inactive: 0
29 | EP400 (UniProt Q96L91) | inactive: 0
30 | DPH2 (UniProt Q9BQC3) | inactive: 0

Look-ups from the results shown.
dose-dependent thermal stabilisation call, DYNLRB1 (UniProt Q9NP97) reads inactive: 0
dose-dependent thermal stabilisation call, ERF (UniProt P50548) reads inactive: 0
